Measured values taken from the supplement of paper PMC3334620.
Over roughly 33,000 sequences, “E-score (-0.5 to 0.5)” has its median near -0.016; the highest 2% begin near 0.3. The list shows a part of the results.

target: T1, Yer184c (UniProt P39961); experiment: PBM E-score (8-mer binding enrichment) (E-score (-0.5 to 0.5)); higher = stronger / more preferred TF binding; conditions: protein concentration: 100 nM; construct: GST-full length
T1 sequence: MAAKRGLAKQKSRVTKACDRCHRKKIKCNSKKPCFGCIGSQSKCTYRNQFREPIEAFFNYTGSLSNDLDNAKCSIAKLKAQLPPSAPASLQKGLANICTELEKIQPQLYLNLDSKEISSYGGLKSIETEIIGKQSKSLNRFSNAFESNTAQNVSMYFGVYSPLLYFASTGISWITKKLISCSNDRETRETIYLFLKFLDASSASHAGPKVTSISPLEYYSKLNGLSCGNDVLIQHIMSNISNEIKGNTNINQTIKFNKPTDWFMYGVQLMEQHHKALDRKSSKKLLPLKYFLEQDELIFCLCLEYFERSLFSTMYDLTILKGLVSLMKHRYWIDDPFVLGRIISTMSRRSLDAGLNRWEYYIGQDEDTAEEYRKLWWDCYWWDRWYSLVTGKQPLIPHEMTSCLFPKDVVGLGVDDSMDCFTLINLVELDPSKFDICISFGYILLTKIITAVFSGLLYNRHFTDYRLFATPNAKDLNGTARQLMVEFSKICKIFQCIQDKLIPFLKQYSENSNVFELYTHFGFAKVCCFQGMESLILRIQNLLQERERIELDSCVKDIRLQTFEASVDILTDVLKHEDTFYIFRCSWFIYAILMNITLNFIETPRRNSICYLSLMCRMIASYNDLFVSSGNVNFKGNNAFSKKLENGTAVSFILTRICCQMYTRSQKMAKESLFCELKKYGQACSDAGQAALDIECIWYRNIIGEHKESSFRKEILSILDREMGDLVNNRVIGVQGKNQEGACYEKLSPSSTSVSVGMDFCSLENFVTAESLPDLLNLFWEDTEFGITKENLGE
Outline: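 GST-tagged yeast TFs (full-length or DNA-binding domain) were made by PURExpress in vitro transcription/translation and applied at about 100-200 nM to universal all-10-mer Agilent arrays. The arrays were made double-stranded by primer extension, on fresh or once-stripped slides. Bound protein was detected with fluorescent anti-GST, and scans were normalised with masliner. Each ungapped eight-base word, pooled with its reverse complement, received an E-score (modified Wilcoxon-Mann-Whitney statistic) from the Universal PBM Analysis Suite.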

| Sequence | PBM E-score |
| --- | --- |
| AACCCATA | 0.129 |
| GCTCCACC | -0.044 |
| ACCCCTCG | -0.223 |
| AGTGACTG | -0.192 |
| AGCTCAAC | -0.00098 |
| ACCGTCGG | 0.0379 |
| ATCGCCGG | 0.39 |
| AATGAAAT | 0.253 |
| AACTCGGT | 0.129 |
| TCTCTGAA | -0.0476 |
| AAAAAGAA | 0.165 |
| GCTCTACC | -0.295 |
| AACATTGT | 0.0456 |
| AGTATCCC | -0.0953 |
| ACATGATG | -0.179 |
| ATAGAATC | 0.128 |
| AATTACGG | 0.234 |
| ACGAGAGA | 0.0456 |

Copied from the list.
GCTCTACC – PBM E-score: -0.295
AACCCATA – PBM E-score: 0.129

The list goes on:

| Sequence | PBM E-score |
| --- | --- |
| ATGATGGC | -0.121 |
| AGCTACAA | 0.0644 |
| AGCGGCCA | -0.161 |
| CGATCCCC | -0.121 |
| ATTCAGTC | -0.0628 |
| AAAATAGA | 0.265 |
| AAATCACA | 0.0406 |
| CCCGTGCC | -0.00029 |
| GATGCTAC | -0.109 |
| AGTGCTGC | -0.136 |
| CAGTTATC | 0.0261 |
| AAAATCTA | 0.203 |
| CAGGTTAA | -0.146 |
| AAACTCTA | -0.0413 |
| CTATGAGA | -0.0159 |
| AACCCAGG | -0.149 |
| AGTCGGTA | 0.103 |
